Results are given in words; binding and its absence hold for the method and conditions named. For some of these results: Binding seen in cells or lysates may run through a third protein. Some results given as binding are weak or reduced against the parent protein; the word gives no strength. Where a sequence is shown, tags or fusion partners need not be part of it.
T1: VmD6PKL2 (D6 PROTEIN KINASE LIKE 2 of V. montana), two-hybrid bait PGBKT7-VmD6PKL2 (Vernicia montana)
T1 sequence: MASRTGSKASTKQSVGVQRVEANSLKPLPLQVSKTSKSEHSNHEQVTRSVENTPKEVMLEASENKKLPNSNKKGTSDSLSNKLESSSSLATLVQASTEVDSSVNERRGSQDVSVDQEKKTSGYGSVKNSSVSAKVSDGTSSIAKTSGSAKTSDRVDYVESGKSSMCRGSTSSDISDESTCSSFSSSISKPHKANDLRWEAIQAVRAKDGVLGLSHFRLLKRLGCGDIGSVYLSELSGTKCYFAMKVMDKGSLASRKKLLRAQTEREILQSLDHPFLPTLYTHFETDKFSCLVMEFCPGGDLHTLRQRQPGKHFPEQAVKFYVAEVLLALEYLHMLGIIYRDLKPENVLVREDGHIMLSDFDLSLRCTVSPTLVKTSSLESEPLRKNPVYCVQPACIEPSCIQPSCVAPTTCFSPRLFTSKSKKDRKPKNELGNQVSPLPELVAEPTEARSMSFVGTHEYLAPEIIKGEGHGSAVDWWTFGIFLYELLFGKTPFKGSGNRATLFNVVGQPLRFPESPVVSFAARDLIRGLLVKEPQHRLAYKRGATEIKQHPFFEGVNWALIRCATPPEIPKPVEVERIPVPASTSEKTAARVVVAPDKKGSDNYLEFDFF

T2: GST-VmBRXL4 (Vernicia montana)
T2 sequence: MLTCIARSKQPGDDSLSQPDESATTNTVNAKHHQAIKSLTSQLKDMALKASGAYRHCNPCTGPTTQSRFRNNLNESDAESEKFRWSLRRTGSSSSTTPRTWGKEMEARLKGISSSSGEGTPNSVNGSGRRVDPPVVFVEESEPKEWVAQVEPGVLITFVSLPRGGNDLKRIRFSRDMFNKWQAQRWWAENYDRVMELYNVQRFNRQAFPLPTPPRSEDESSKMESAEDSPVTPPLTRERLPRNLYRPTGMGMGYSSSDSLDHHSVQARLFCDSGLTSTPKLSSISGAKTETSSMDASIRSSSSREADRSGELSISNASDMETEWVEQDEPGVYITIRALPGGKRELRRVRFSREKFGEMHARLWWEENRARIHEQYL

T3: GST-VmSYT3 (region of 50 aa to 538 aa) (Vernicia montana)
T3 sequence: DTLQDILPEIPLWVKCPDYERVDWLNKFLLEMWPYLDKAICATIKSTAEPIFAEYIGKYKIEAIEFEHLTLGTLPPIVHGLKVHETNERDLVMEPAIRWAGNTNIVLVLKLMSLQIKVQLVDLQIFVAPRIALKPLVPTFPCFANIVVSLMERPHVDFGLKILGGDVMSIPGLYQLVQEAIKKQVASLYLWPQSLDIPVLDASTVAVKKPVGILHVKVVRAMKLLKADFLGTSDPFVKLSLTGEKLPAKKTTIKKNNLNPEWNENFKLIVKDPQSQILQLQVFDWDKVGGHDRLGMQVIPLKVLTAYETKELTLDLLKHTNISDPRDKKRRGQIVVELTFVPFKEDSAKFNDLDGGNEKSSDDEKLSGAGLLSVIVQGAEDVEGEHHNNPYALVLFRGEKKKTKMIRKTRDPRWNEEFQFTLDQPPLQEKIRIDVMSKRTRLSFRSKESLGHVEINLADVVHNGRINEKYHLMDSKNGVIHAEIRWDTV


Columns and labels:
[1] = molecular target: T1, VmD6PKL2 (D6 PROTEIN KINASE LIKE 2 of V. montana), two-hybrid bait PGBKT7-VmD6PKL2 (Vernicia montana); assay: two-hybrid; Gal4 system; bait PGBKT7-VmD6PKL2 in Y2HGold mated with PGADT7-cDNA library of Fof-1-infected V. montana root in Y187; SD/-Trp-Leu-His/X-α-Gal/AbA, then SD/-Ade-Trp-Leu-His/X-α-Gal/AbA; prey plasmids retransfected for one-to-one-interaction screening
[2] = molecular target: T2, GST-VmBRXL4 (Vernicia montana); assay: pull-down; GST, GST-VmSYT3 or GST-VmBRXL4 on glutathione resin; 50 µg of total protein from V. montana root incubated overnight at 4 °C; washed with TBS (10 mM Tris, 150 mM NaCl, pH 8.0); Western blot with antiGST and antiD6PKL2; only the target purified
[3] = molecular target: T3, GST-VmSYT3 (region of 50 aa to 538 aa) (Vernicia montana); assay: as above

binding [1]	binding [2]	binding [3]	Binder
binds	–	–	VmBRXL4 (BREVIS RADIX-LIKE 4), two-hybrid prey from the V. montana root cDNA library (protein, UniProt A0A6C0GYA5 1-377) MLTCIARSKQPGDDSLSQPDESATTNTVNAKHHQAIKSLTSQLKDMALKASGAYRHCNPCTGPTTQSRFRNNLNESDAESEKFRWSLRRTGSSSSTTPRTWGKEMEARLKGISSSSGEGTPNSVNGSGRRVDPPVVFVEESEPKEWVAQVEPGVLITFVSLPRGGNDLKRIRFSRDMFNKWQAQRWWAENYDRVMELYNVQRFNRQAFPLPTPPRSEDESSKMESAEDSPVTPPLTRERLPRNLYRPTGMGMGYSSSDSLDHHSVQARLFCDSGLTSTPKLSSISGAKTETSSMDASIRSSSSREADRSGELSISNASDMETEWVEQDEPGVYITIRALPGGKRELRRVRFSREKFGEMHARLWWEENRARIHEQYL
–	binds	binds	VmD6PKL2, endogenous in total protein from root tissue of V. montana (protein, UniProt A0A6C0GWK5 1-610) MASRTGSKASTKQSVGVQRVEANSLKPLPLQVSKTSKSEHSNHEQVTRSVENTPKEVMLEASENKKLPNSNKKGTSDSLSNKLESSSSLATLVQASTEVDSSVNERRGSQDVSVDQEKKTSGYGSVKNSSVSAKVSDGTSSIAKTSGSAKTSDRVDYVESGKSSMCRGSTSSDISDESTCSSFSSSISKPHKANDLRWEAIQAVRAKDGVLGLSHFRLLKRLGCGDIGSVYLSELSGTKCYFAMKVMDKGSLASRKKLLRAQTEREILQSLDHPFLPTLYTHFETDKFSCLVMEFCPGGDLHTLRQRQPGKHFPEQAVKFYVAEVLLALEYLHMLGIIYRDLKPENVLVREDGHIMLSDFDLSLRCTVSPTLVKTSSLESEPLRKNPVYCVQPACIEPSCIQPSCVAPTTCFSPRLFTSKSKKDRKPKNELGNQVSPLPELVAEPTEARSMSFVGTHEYLAPEIIKGEGHGSAVDWWTFGIFLYELLFGKTPFKGSGNRATLFNVVGQPLRFPESPVVSFAARDLIRGLLVKEPQHRLAYKRGATEIKQHPFFEGVNWALIRCATPPEIPKPVEVERIPVPASTSEKTAARVVVAPDKKGSDNYLEFDFF
binds	–	–	VmSYT3 (synaptotagmins 3), two-hybrid prey from the V. montana root cDNA library (protein, UniProt A0A6C0GYC8 1-538) MGFLSTLLGVLGFGFGLPIGLLIGFFLFVYSPPKDVKDPVVRPLHELDSDTLQDILPEIPLWVKCPDYERVDWLNKFLLEMWPYLDKAICATIKSTAEPIFAEYIGKYKIEAIEFEHLTLGTLPPIVHGLKVHETNERDLVMEPAIRWAGNTNIVLVLKLMSLQIKVQLVDLQIFVAPRIALKPLVPTFPCFANIVVSLMERPHVDFGLKILGGDVMSIPGLYQLVQEAIKKQVASLYLWPQSLDIPVLDASTVAVKKPVGILHVKVVRAMKLLKADFLGTSDPFVKLSLTGEKLPAKKTTIKKNNLNPEWNENFKLIVKDPQSQILQLQVFDWDKVGGHDRLGMQVIPLKVLTAYETKELTLDLLKHTNISDPRDKKRRGQIVVELTFVPFKEDSAKFNDLDGGNEKSSDDEKLSGAGLLSVIVQGAEDVEGEHHNNPYALVLFRGEKKKTKMIRKTRDPRWNEEFQFTLDQPPLQEKIRIDVMSKRTRLSFRSKESLGHVEINLADVVHNGRINEKYHLMDSKNGVIHAEIRWDTV
